The record followed here is paper PMC11119796.

Chains of the proteins cited; added tags and fusions are not shown.
UniProt P52480: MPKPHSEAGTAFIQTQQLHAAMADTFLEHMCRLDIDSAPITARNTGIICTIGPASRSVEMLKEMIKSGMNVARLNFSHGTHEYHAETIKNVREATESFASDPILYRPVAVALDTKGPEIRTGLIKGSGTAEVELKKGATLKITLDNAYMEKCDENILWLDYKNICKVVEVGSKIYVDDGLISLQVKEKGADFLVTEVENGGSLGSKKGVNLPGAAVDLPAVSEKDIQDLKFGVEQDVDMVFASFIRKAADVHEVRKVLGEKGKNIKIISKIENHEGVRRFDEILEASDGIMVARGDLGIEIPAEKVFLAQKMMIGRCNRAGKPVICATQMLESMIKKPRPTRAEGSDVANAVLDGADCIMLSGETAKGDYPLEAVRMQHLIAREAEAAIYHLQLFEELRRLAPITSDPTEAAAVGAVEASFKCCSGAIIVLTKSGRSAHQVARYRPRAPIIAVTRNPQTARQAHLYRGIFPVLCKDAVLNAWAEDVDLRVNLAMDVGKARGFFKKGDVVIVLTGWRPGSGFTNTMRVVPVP

In experiment [1] the target is PKM2-Flag (pyruvate kinase isozyme M2, Flag-tagged) (UniProt P52480). Description: co-IP; HEK293T cells transfected with ISLR-GFP and PKM2-Flag, cultured 2 d; Flag antibody or ISLR antibody as the bait; Western blot; also under H2O2 treatment (Figure S3A). In general terms: Immunoblotting shows a protein as a band on a membrane.
Experiment [2] addresses Pkm2-3×Flag (UniProt P52480). Description: co-IP; HEK293T cells expressing Pkm2-3×Flag with or without ISLR overexpression, cultured 2 d, then 7 μM H2O2 for 3 h; FLAG antibody as the bait; Western blot of endogenous PKM2.

No constants are given. Whether binding was seen depends on the method and setting. In cells and extracts the contact can be indirect. Some binding calls cover weakened binding; strength is not graded here. For some assays here: Where a sequence is shown, tags or fusion partners need not be part of it.

B1: ISLR-GFP (immunoglobulin superfamily containing leucine-rich repeat, GFP-tagged) (protein, UniProt Q6GU68 19-428)
chain: CPEPCDCGEKYGFQIADCAYRDLEGVPPGFPANVTTLSLSANRLPGLPEGAFREVPLLQSLWLAHNEIRSVAIGALAPLSHLKSLDLSHNLLSEFAWSDLHNLSALQLLKMDSNELAFIPRDAFSSLSALRSLQLNHNRLHALAEGTFAPLTALSHLQINDNPFDCTCGIVWFKTWALASAVSIPEQDNIACTTPHVLKGIPLGRLPPLPCSAPSVQLSYQPSQDGAELRPGFVLALHCDVDGQPVPQLHWHIHTPGGTVEIASPNVGTDGRALPGALATSGQPRFQAFANGSLLIPDFGKLEEGTYSCLATNELGSAESSVNVALATPGEGGEDAVGHKFHGKAVEGKGCYTVDNEVQPSGPEDNVVIIYLSRAGPPEAAIAADGRPAQQFSGILLLGQSLLVLSFFYF
Consider B1, for which, in experiment [1], the binding entry is on record as “binds”.

B2: ISLR (construct not stated) (protein, UniProt Q6GU68 19-428)
chain: CPEPCDCGEKYGFQIADCAYRDLEGVPPGFPANVTTLSLSANRLPGLPEGAFREVPLLQSLWLAHNEIRSVAIGALAPLSHLKSLDLSHNLLSEFAWSDLHNLSALQLLKMDSNELAFIPRDAFSSLSALRSLQLNHNRLHALAEGTFAPLTALSHLQINDNPFDCTCGIVWFKTWALASAVSIPEQDNIACTTPHVLKGIPLGRLPPLPCSAPSVQLSYQPSQDGAELRPGFVLALHCDVDGQPVPQLHWHIHTPGGTVEIASPNVGTDGRALPGALATSGQPRFQAFANGSLLIPDFGKLEEGTYSCLATNELGSAESSVNVALATPGEGGEDAVGHKFHGKAVEGKGCYTVDNEVQPSGPEDNVVIIYLSRAGPPEAAIAADGRPAQQFSGILLLGQSLLVLSFFYF
Take B2: the binding entry in experiment [2] is given as “binds”.
